The record followed here is publication PMC4682171.

Sequences of proteins named here, by UniProt entry; tags and fusion partners are left off.
UniProt P12004: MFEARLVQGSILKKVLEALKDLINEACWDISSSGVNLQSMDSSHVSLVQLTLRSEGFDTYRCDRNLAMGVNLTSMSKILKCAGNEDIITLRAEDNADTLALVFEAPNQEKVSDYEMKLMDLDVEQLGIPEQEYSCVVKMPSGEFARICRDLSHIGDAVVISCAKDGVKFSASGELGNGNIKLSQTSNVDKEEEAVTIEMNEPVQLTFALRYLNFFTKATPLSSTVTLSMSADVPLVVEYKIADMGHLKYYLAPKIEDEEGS

Results are given in words; binding and its absence hold for the method and conditions named. In cells and extracts the contact can be indirect. A yes stands for co-enrichment or nearness to the bait. Other partners may have been found.

The target of this assay is T1, Set8 (affinity purification coupled with mass spectrometry) (UniProt Q9NQR1).
T1 sequence: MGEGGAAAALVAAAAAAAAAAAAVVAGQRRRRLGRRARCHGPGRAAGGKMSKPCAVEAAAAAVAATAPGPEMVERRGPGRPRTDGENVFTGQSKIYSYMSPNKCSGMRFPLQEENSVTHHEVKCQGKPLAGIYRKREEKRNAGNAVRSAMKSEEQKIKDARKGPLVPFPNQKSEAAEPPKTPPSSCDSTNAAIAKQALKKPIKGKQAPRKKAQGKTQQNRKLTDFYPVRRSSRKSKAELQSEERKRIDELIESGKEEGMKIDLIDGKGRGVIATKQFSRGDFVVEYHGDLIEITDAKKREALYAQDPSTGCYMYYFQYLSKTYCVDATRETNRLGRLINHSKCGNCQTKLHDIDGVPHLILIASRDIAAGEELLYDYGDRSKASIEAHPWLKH
The assay can be described thus: affinity purification with mass spectrometry; whole cellular extracts, affinity purification with anti-Flag antibody, SDS-PAGE, silver stain, bands analysed by mass spectrometry (the methods name Flag-β-TRCP1 stably expressing 293 T cells).

As to PCNA (from UniProt P12004 1-261), the binding result is given as “binds”. In the case of β-TRCP (found by mass spectrometry), the binding entry is “binds”.
